Experimental data: patent US9340532B2, “Methods and compositions for inhibiting CNKSR1” (PHUSIS THERAPEUTICS, INC., priority 2012, dated 2016)
For at least one compound, name, drawing or mass did not settle the structure.

Key:
[1] = target: T1, direct binding of CNKSR1 to mut-KRAS (Homo sapiens, UniProt Q969H4); assay: Fluorescence lifetime imaging microscopy (FLIM); assay type: cell-based; conditions: FIG. 13, FLIM
T1 construct: expressed in transfected cells
T1 sequence (Q969H4 1-720): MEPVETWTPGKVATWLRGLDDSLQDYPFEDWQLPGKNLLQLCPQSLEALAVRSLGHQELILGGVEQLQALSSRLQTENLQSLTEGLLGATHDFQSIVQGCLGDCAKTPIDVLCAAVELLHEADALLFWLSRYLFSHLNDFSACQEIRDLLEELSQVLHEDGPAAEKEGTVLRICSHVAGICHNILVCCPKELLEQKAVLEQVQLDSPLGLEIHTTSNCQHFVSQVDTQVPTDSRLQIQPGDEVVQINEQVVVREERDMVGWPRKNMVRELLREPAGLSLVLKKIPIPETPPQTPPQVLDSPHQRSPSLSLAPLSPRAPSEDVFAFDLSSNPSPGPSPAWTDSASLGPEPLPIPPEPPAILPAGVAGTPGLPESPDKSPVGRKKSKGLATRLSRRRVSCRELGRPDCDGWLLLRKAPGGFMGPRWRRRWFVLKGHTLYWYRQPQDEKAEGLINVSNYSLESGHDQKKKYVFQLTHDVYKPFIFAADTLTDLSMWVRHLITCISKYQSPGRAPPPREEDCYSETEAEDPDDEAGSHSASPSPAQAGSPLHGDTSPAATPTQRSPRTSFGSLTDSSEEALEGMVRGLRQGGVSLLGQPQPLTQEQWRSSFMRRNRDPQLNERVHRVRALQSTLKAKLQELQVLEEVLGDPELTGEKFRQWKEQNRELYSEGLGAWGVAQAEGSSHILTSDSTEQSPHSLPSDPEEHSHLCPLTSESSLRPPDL
Method: FLIM experiments were carried out using a Leica TCP SP5 inverted advanced confocal microscope system with internal photomultiplier tube (PMT) detector for TCSPC (time-correlated single-photon counting). The sample was excited with a tunable femtosecond (fs) titanium-sapphire laser with repetition rate of 80 MHz and pulse width less then 80 fs (Spectral Physics, Mai Tai BB). The wavelength used for two-photon excitation was 930 nm and the fluorescence was detected through a 525±25 nm interference filter. Images were obtained with oil-immersion objective (numerical aperture NA=1.4), a line scan speed of 400 Hz, with image size of 512×512 pixels. For FLIM analysis the pixels were reduced to 256×256. FLIM data was collected using Becker & Hickl SPC830 data and image acquisition card for TCSPC.

[2] = system: mut-KRAS NSCLC cell lines; assay: Screening against NSCLC cell line panel, mut-KRAS lines; assay type: cell-based; conditions: FIG. 3 and FIG. 5
Method: (§1) The isogenic KRAS lines harboring G12D, G12C, and G12V were obtained from Horizon Discovery labs on a one year lease. These cells were cultured in McCoys media with 10% FBS to 80% confluency. Cells were then released from flasks via trypsinization and plated into 96-well plates at an initial density range of 2000 cells per well. Cells were allowed 24 hours to attach, and then the agents were added to the culture media at a range of concentrations from 0-100 μM. Cells were incubated for 72 hours with the drugs, and then viability was assessed using an MTS viability assay. Cells were exposed to MTS reagent (Promega) dissolved in PBS (Hyclone) at a concentration of 200 μL reagent/mL media for 2 hours. Absorbance was then read at 490 nm, and viability was expressed as a percentage normalized between the negative control (no cells plated) and the condition of cells with no drug added (100% viability) normalized as the upper limit of viability.
(§2) Our panel of 30 cell lines and an extensive characterization were obtained from Dr. John Minna (UTSW). All cell lines were cultured in RPMI 1640 with 10% FBS. Cells were treated with concentrations of agents at concentrations 0.01 to 50 μM and evaluated as described above. IC50's were determined using Excelfit.

wt-KRAS NSCLC cell lines = assay: Screening against NSCLC cell line panel, wt-KRAS lines; assay type: cell-based; conditions: FIG. 5
Method: as §1, §2

[3] = target: T2, membrane colocalisation of CNKSR1 and mutant-KRas (Homo sapiens, UniProt Q969H4); assay: Confocal imaging of CNKSR1 / mutant KRas colocalisation; assay type: cell-based; conditions: FIG. 12
T2 construct: fluorescent protein (GFP or mRFP); expressed in transfected cells; host or cells: HEK293T
T2 sequence (Q969H4 1-720): T1 sequence (Q969H4 1-720)
Method: HEK293T cells were co-transfected with CNK and either wild type or G12D mutant KRAS. Twenty-four hours post-transfection, cells were seeded on glass coverslips and allowed to grow a further 24 h and then serum deprived overnight. Cells were fixed with 4% (w/v) paraformaldehyde pH 8.0 for 20 min at room temperature. Following 6-7 washes with PBS (pH 8.0) the coverslip was mounted onto a slide with mounting medium (0.1% p-phenylenediamine/75% glycerol in PBS at pH 7.5-8.0). Confocal laser scanning microscopy was performed with a Leica SP5 confocal microscope system with 63× oil-immersion objective (numerical aperture NA=1.4), a line scan speed of 600 Hz, with image size of 1024×1024 pixels. GFP was excited with an argon-visible light laser tuned to 488 nm, mRFP were excited with a […] tuned to 543 nm GFP and RFP fluorescence emissions were collected using a photomultiplier tube via 514/10 nm and 595/10 nm band selections respectively.

CNK1 PH-domain (CNKSR1) = target: T3, CNK1 PH-domain (CNKSR1) (Homo sapiens, UniProt Q969H4); assay: SPR binding assay (Biacore T100), CNK1 PH-domain
T3 construct: The PH-domain His-fusion proteins (CNK1 and AKT1) were expressed and immobilized on a NTA chip; made in house
T3 sequence (Q969H4 403-502 limits assumed): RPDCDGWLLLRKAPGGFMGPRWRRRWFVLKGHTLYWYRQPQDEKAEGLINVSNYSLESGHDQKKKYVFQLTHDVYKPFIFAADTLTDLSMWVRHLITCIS
Method: All interaction analyses were done with a Biacore T100 Control Software v3.2, and BIAevaluation v4.1 analysis software (Biacore). The PH-domain His-fusion proteins (CNK1 and AKT1) were expressed and immobilized on a NTA chip to a level of 10,000 response units or less. Small molecule analytes at concentrations ranging from 50 μM to 0.010 μM were injected at a high flow rate (30 μL/min) DMSO concentrations in all samples and running buffer were 1-5% (v/v).
Other docking was performed using modeling algorithms with state-of-the-art commercial drug discovery software (Schrodinger suite). […] Additionally, ligand-based approaches provided an alternative to structure based drug discovery. Ligand-based virtual screening methodologies can take into account shape and electrostatics (like ROCS) and the pharmacophoric features (acceptor, donor, hydrophobic, aromatic, etc.) of its functional groups. […] SPR interaction analyses of all other compounds was undertaken using a Biacore T100 with Control and Evaluation software kit.

## Cc1ccc(-c2csc(Cn3nc(CC4OCCCO4)c4ccccc4c3=O)n2)cc1 [Compound 9]
[1]
  direct binding of CNKSR1 to mut-KRAS in cells: inhibit
[2]
  inhibition of mut-KRAS cell growth (in words): inhibited the growth
wt-KRAS NSCLC cell lines
  inhibition of wt-KRAS cell growth (in words): also inhibited
[3]
  membrane colocalisation of CNKSR1 and mutant-KRas at the plasma membrane: blocking
  total mutant KRas protein in the cell: lower
CNK1 PH-domain (CNKSR1); date 11 26 13
  Surface Plasmon Resonance CNKSR1 binding (RU max): 3.979 RU * 100/Da
  Surface Plasmon Resonance CNKSR1 stability (RU max post-injection): 1.960 RU * 100/Da
CNK1 PH-domain (CNKSR1); date 12 09 13
  Surface Plasmon Resonance CNKSR1 binding (RU max): 0.936 RU * 100/Da
  Surface Plasmon Resonance CNKSR1 stability (RU max post-injection): 1.183 RU * 100/Da
